Experimental data published in the supplement of paper PMC10849652.
This is one part of the list.

Sequences of proteins named here, by UniProt entry; tags and fusion partners are left off. A change or cut given only in a name is not applied to a line headed by its entry.
UniProt Q8TA86: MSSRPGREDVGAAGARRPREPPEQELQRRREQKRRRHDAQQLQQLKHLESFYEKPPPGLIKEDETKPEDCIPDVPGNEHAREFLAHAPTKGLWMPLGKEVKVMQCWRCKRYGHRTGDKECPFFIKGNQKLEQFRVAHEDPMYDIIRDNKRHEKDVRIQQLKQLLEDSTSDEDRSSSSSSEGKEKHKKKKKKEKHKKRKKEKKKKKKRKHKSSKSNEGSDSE
UniProt Q8IXW5, whole entry, looked up: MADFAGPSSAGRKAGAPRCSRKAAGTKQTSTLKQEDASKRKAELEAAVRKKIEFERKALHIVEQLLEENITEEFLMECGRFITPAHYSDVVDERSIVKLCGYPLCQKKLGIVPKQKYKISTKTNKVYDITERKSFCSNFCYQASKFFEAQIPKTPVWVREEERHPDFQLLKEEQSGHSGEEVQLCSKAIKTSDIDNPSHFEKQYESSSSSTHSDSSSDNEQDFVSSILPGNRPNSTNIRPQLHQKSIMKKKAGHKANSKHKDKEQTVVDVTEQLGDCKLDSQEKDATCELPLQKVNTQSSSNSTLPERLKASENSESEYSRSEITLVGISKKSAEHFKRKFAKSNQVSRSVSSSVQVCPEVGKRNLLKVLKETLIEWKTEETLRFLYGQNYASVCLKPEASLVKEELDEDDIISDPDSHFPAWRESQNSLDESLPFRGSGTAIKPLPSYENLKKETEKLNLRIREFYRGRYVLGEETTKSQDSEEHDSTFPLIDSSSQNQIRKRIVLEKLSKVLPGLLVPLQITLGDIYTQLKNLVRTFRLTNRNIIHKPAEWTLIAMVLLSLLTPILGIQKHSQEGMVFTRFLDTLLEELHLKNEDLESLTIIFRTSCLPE
UniProt Q92834: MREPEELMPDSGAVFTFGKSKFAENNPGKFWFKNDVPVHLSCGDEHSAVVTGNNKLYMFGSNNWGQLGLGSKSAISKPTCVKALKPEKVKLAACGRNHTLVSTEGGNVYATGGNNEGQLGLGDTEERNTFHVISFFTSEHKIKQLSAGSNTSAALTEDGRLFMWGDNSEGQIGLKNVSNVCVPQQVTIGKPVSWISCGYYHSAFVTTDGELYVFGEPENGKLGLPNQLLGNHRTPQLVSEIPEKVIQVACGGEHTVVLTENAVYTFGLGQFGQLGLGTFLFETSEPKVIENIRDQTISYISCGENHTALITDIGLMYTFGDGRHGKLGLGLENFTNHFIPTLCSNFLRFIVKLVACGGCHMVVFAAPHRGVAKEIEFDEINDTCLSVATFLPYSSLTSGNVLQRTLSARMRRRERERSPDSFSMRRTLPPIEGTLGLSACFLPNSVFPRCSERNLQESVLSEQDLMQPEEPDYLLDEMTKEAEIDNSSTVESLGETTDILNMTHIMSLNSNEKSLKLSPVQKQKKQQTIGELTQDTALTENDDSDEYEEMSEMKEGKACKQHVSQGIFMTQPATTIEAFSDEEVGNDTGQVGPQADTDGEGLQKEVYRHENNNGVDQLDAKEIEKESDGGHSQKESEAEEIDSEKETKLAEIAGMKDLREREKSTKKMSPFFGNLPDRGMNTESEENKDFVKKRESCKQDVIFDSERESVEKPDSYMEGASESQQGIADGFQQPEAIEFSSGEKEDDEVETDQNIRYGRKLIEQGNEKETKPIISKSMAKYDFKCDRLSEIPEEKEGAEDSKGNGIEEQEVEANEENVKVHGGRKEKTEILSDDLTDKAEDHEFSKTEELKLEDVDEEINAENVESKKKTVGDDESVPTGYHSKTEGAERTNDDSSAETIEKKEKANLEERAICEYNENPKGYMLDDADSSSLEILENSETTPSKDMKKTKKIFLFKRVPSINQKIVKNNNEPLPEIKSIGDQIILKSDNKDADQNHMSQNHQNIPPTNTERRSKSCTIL
UniProt Q9H7B2: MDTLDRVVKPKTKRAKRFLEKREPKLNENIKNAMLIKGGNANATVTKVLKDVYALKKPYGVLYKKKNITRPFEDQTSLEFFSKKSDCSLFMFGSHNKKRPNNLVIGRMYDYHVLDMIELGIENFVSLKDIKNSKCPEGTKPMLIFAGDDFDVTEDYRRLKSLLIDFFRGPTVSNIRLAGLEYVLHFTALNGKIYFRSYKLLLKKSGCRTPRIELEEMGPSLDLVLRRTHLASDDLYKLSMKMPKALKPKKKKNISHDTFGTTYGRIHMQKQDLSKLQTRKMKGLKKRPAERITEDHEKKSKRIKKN
UniProt Q9NYV6: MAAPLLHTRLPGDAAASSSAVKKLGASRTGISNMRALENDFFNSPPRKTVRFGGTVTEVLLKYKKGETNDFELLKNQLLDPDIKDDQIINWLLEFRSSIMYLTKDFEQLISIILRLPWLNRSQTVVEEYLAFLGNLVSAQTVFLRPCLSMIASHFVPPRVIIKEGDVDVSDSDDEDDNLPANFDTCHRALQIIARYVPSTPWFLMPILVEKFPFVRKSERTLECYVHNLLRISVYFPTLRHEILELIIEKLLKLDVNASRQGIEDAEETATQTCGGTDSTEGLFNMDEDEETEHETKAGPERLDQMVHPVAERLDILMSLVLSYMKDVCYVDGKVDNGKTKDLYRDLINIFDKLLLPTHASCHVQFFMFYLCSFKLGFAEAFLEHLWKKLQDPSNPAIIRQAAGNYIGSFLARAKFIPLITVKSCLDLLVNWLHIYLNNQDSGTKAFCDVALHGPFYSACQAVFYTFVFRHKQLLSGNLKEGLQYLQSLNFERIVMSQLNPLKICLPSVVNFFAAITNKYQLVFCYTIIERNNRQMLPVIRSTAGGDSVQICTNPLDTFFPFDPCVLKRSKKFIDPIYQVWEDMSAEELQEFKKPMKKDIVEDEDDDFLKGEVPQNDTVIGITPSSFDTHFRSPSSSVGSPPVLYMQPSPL
UniProt Q86UA6: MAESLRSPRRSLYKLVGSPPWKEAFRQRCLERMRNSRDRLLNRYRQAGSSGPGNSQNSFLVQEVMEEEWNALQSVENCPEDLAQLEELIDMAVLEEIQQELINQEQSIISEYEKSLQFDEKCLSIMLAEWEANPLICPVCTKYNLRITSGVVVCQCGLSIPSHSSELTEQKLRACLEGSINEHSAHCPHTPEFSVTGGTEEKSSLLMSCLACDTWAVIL
UniProt Q96EP0: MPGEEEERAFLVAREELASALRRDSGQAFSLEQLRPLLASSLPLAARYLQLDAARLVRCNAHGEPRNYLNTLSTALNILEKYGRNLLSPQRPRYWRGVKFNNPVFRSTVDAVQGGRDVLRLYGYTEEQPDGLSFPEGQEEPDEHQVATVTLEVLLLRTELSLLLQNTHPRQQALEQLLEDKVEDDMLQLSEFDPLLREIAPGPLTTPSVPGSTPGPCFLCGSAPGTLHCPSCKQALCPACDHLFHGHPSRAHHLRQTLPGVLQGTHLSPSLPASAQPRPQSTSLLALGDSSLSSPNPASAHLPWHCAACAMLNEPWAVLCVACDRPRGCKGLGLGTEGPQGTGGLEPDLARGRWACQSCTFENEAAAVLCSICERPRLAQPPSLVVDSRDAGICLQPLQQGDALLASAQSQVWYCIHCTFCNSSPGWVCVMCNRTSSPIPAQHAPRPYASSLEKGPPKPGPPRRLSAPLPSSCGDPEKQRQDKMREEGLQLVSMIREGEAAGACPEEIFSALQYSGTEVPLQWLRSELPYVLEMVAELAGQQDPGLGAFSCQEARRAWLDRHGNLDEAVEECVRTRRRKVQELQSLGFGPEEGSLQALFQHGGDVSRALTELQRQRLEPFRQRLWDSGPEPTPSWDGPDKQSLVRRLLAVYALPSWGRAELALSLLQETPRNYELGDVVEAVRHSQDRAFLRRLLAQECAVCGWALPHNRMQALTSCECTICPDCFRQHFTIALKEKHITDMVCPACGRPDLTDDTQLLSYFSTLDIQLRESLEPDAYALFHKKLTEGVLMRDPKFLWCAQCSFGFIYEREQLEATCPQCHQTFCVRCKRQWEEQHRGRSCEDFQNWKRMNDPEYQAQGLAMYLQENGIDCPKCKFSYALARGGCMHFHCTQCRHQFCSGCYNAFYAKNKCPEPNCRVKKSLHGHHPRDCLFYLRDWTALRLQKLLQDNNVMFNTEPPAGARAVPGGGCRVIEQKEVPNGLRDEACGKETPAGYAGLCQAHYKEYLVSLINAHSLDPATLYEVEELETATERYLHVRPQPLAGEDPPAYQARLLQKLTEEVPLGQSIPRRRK
UniProt Q96CM3: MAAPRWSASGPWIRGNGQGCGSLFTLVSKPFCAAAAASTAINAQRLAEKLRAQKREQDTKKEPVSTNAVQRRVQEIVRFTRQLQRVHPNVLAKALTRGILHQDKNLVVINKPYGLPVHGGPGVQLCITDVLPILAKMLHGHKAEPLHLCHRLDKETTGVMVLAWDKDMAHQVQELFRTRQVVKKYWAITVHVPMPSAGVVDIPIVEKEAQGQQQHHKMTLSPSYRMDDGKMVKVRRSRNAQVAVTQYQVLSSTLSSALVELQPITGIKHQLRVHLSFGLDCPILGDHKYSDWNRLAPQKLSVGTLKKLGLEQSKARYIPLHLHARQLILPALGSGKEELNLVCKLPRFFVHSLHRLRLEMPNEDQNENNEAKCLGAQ
UniProt Q9UBS0: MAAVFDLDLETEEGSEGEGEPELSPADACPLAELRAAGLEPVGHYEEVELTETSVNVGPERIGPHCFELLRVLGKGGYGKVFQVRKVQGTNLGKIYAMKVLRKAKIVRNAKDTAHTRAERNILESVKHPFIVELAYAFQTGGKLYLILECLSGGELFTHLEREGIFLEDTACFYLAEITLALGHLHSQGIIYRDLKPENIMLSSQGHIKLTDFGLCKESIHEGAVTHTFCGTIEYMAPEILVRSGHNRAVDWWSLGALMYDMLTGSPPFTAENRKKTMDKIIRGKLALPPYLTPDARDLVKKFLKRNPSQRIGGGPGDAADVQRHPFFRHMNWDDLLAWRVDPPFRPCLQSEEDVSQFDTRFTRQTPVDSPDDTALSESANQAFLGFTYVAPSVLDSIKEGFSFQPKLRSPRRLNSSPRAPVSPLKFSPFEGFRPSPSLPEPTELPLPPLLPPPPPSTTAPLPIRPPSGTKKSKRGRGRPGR
UniProt O75582, whole entry, looked up: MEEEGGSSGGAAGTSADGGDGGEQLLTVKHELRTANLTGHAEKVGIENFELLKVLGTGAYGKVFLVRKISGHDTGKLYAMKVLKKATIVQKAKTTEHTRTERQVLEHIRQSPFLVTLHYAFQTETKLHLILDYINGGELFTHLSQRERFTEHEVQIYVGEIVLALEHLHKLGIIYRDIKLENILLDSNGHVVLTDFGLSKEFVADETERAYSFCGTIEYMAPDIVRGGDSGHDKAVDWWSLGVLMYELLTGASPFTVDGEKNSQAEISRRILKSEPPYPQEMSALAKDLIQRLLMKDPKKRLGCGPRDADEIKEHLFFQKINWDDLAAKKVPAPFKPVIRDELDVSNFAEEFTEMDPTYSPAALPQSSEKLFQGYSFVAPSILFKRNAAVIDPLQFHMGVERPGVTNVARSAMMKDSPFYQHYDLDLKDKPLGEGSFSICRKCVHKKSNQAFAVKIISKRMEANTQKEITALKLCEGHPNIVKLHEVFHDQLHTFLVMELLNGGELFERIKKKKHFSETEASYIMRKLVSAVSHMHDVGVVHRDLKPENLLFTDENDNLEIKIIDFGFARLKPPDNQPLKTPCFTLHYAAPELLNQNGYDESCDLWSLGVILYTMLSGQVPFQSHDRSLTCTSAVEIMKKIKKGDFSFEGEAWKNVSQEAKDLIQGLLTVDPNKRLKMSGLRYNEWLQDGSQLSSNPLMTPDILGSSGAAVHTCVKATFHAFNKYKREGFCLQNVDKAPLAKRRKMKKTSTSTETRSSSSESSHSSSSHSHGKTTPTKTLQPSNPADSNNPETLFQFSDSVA
UniProt Q9H4P4: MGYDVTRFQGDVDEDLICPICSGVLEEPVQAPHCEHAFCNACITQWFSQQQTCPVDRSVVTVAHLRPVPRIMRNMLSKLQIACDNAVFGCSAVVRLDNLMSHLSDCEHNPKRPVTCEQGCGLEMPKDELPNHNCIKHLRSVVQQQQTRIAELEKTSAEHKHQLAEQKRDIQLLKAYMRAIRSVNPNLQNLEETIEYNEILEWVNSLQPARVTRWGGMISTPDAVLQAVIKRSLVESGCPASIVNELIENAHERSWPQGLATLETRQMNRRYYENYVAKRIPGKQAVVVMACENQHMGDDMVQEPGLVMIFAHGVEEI
UniProt P78317: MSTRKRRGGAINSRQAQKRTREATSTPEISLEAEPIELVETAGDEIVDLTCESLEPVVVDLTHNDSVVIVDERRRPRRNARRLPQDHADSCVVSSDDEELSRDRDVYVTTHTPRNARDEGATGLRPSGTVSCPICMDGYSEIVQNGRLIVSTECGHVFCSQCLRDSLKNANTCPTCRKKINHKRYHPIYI
UniProt Q96P16: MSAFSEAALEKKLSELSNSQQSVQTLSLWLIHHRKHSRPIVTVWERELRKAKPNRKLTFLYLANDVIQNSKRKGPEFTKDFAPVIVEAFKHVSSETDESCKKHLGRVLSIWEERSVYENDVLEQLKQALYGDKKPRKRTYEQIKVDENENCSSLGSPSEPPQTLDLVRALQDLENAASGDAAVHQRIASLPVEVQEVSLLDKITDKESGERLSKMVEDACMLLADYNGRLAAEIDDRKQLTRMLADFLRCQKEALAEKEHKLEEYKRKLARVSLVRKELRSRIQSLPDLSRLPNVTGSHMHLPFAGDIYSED

Key:
Test in all cases: log2 fold change, soluble protein after heating vs DMSO (PISA); higher = thermal stabilisation; K562 cells, 10 uM, 30 min; active = over 0.2 and 3.5 SD of the protein, either way, in both replicates (recomputed)
[1] = compound: NC(=O)Nc1cc(-c2cccc(F)c2)sc1C(=O)N[C@H]1CCCNC1
Outline: (§1)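 Soluble protein was quantified by TMTpro 16plex LC-MS/MS after channel sums were equalised. It was obtained as the supernatant after 21,000xg for 90 min from pooled aliquots of K562 cells (2×10^6 cells/mL, 10 μM compound, 30 min) heated for 3 min across 48°C-58°C and extracted in PBS with 0.5% NP-40 at 4°C. Thermal stability values are relative to control samples and come from duplicates. They are given as log2 fold changes.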

[2] = compound: NC(=O)c1cnc(N[C@@H]2CCCC[C@@H]2N)nc1Nc1cccc(-n2nccn2)c1
Outline: as §1

[3] = compound: NC1(c2ccc(-c3nc4ccn5c(=O)[nH]nc5c4cc3-c3ccccc3)cc2)CCC1
Outline: as §1

[4] = compound: NCC(=O)Nc1ccc(-n2nc(C(F)(F)F)cc2-c2ccc3c(ccc4ccccc43)c2)cc1
Outline: as §1

[5] = compound: Nc1ccccc1NC(=O)c1ccc(CNC(=O)OCc2cccnc2)cc1 [entinostat]
Outline: as §1

[6] = compound: O=C(CCCCCCC(=O)Nc1ccccc1)NO [vorinostat]
Outline: as §1

[7] = compound: O=C(CCCCCCNC(=O)c1cnc(N(c2ccccc2)c2ccccc2Cl)nc1)NO [citarinostat]
Outline: as §1

[8] = compound: O=C(O)c1ccc2c(c1)nc(Nc1cccc(Cl)c1)c1ccncc12 [silmitasertib]
Outline: as §1

[9] = compound: O=C1NC(=O)C(c2cnc3ccccn23)=C1c1cn2c3c(cc(F)cc13)CN(C(=O)N1CCCCC1)CC2
Outline: as §1

[10] = compound: c1cc(OCCN2CCCCC2)cc(-c2n[nH]c3ccc(-c4nnc[nH]4)cc23)c1
Outline: as §1

[11] = compound: c1cn2cc(-c3ccc4cn[nH]c4c3)nc(Nc3ccc(N4CCOCC4)cc3)c2n1 [entospletinib]
Outline: as §1

Measured: log2 fold change

RPL11 (UniProt P62913)
inactive: [1] 0.136 | [2] 0.121 | [3] 0.407 | [4] 0.225 | [5] -0.071 | [6] 0 | [7] -0.161 | [8] 0.17 | [9] 0.164 | [10] -0.396 | [11] 0.051

RPL39P5 (UniProt Q59GN2)
inactive: [1] -0.078 | [2] 0.193 | [3] 0.288 | [4] 0.136 | [5] -0.151 | [6] -0.009 | [7] -0.102 | [8] 0.12 | [9] 0.087 | [10] -0.215 | [11] 0.134

RNH1 (UniProt P13489)
inactive: [1] -0.01 | [2] -0.027 | [3] -0.077 | [4] -0.005 | [5] -0.002 | [6] 0.002 | [7] 0.036 | [8] 0.009 | [9] -0.075 | [10] -0.005 | [11] -0.005

RPL37 (UniProt P61927)
inactive: [1] 0.185 | [2] 0.129 | [3] 0.375 | [4] 0.193 | [5] -0.057 | [6] -0.04 | [7] -0.109 | [8] 0.141 | [10] -0.097 | [11] 0.006

RP9 (UniProt Q8TA86)
inactive: [1] 0.121 | [2] 0.224 | [3] 0.167 | [5] -0.005 | [6] 0.04 | [7] -0.029 | [8] 0.104 | [9] 0.164 | [10] -0.185 | [11] 0.062

RPL36 (UniProt Q9Y3U8)
inactive: [1] 0.245 | [2] 0.194 | [3] 0.437 | [4] 0.365 | [5] -0.104 | [6] -0.023 | [7] -0.163 | [8] 0.183 | [9] 0.367 | [10] -0.306 | [11] 0.03

RPS26 (UniProt P62854)
inactive: [1] 0.182 | [2] 0.004 | [3] 0.311 | [4] 0.121 | [5] -0.053 | [6] 0 | [7] -0.084 | [8] 0.151 | [9] 0.247 | [10] -0.312 | [11] 0.155

RNF7 (UniProt Q9UBF6)
inactive: [1] 0.067 | [2] 0.031 | [3] -0.007 | [4] 0.219 | [5] -0.211 | [6] -0.037 | [7] -0.064 | [8] 0.061 | [9] -0.012 | [10] 0.096 | [11] -0.068

RPAP2 (UniProt Q8IXW5)
inactive: [1] 0.065 | [2] -0.301 | [5] -0.074 | [6] 0.168 | [9] 0.108

RPGR (UniProt Q92834)
inactive: [9] 0.077

RPF2 (UniProt Q9H7B2)
inactive: [6] 0.155

RPS3A (UniProt D6R9B6)
inactive: [1] -0.41 | [2] -0.391 | [5] -0.234

RPL22L1 (UniProt Q6P5R6)
inactive: [1] 0.046 | [5] 0.074 | [7] -0.131 | [9] 0.225 | [10] 0.018 | [11] 0.055

ROGDI (UniProt Q9GZN7)
inactive: [6] 0.16 | [7] -0.16 | [10] -0.295 | [11] 0.098

RRN3 (UniProt Q9NYV6)
inactive: [6] 0.043 | [7] 0.012 | [9] -0.216 | [10] -0.457 | [11] -0.118

RPAIN isoform 8 (UniProt Q86UA6)
inactive: [1] -0.017 | [2] -0.044 | [4] -0.093 | [5] 0.014 | [9] -0.012

RPUSD3 (UniProt Q6P087)
inactive: [2] 0.017 | [3] -0.398 | [6] 0.033 | [8] -0.023

RPL7L1 (UniProt Q6DKI1)
inactive: [4] 0.075 | [6] 0.185 | [7] -0.138 | [9] 0.165 | [10] -0.013 | [11] 0.205

RPRD2 (UniProt Q5VT52)
inactive: [2] -0.05 | [4] -0.021 | [9] -0.016

RNF31 (UniProt Q96EP0)
inactive: [1] -0.023 | [4] 0.055 | [5] 0.094 | [6] 0.108 | [9] -0.043

RPUSD4 (UniProt Q96CM3)
inactive: [1] 0.062 | [2] 0.073 | [3] -0.06 | [5] 0.046 | [6] -0.058 | [8] -0.028 | [9] 0.132

RPLP0 (UniProt F8VWV4)
inactive: [1] -0.134 | [2] 0 | [5] 0.001 | [9] 0.12

RPS6KB2 (UniProt Q9UBS0)
inactive: [3] -0.035 | [8] 0.004 | [9] -0.017

RPE (UniProt Q96AT9)
inactive: [2] -0.02 | [3] -0.06 | [4] 0.071 | [7] 0.084 | [8] -0.009 | [9] -0.466 | [10] -0.052 | [11] 0.022

RNF34 isoform 2 (UniProt Q969K3)
inactive: [2] -0.09 | [3] -0.023 | [4] 0.063 | [6] 0.007 | [7] 0.029 | [8] 0.254 | [9] -0.028 | [10] 0.15 | [11] 0

RPS19 (UniProt M0R2L9)
inactive: [2] -0.159 | [3] 0.453 | [8] -0.634

RNF40 (UniProt O75150)
inactive: [1] 0.095 | [3] -0.042 | [4] -0.423 | [5] 0.259 | [8] 0.259

RPS6KA5 (UniProt O75582)
inactive: [3] -0.138 | [7] -0.101 | [8] 0.045 | [9] -0.088 | [10] 0.092

RPSA (UniProt F8WD59)
inactive: [3] 0.105 | [8] 0

RRP1 (UniProt P56182)
inactive: [4] 0.081 | [6] 0.45

ROCK1 (UniProt Q13464)
inactive: [2] 0.054 | [3] -0.09 | [4] -0.029 | [5] -0.002 | [6] 0.029 | [7] 0.068 | [9] -0.054

RNF26 (UniProt Q9BY78)
inactive: [4] -0.161 | [6] -0.094

ROS1 (UniProt P08922)
inactive: [1] -0.337 | [2] -0.214 | [3] 0.011 | [5] -0.119 | [6] -0.091 | [7] -0.083 | [8] 0.09 | [10] -0.037 | [11] -0.241

Reprinted from the results shown (2 entries):
ROCK1 (UniProt Q13464)
inactive: [2] 0.054 | [3] -0.09 | [4] -0.029 | [5] -0.002 | [6] 0.029 | [7] 0.068 | [9] -0.054

RNF26 (UniProt Q9BY78)
inactive: [4] -0.161 | [6] -0.094

Later entries.

RREB1 isoform 2 (UniProt Q92766)
inactive: [1] 0.053 | [3] -0.026 | [4] 0.052 | [5] -0.143 | [6] -0.192 | [7] -0.108 | [8] -0.136 | [9] 0.067 | [10] -0.105 | [11] 0.14

RPS3 (UniProt E9PJN9)
inactive: [6] 0.2 | [7] 0 | [10] -0.048

RPL10 (UniProt F8W7C6)
inactive: [1] 0.193 | [3] 0.108 | [4] 0.006 | [5] -0.004 | [6] 0.017 | [7] -0.044 | [8] 0.148 | [9] 0.205 | [10] -0.016 | [11] -0.037

RPP30 (UniProt Q5VU11)
inactive: [6] -0.135

RNF41 (UniProt Q9H4P4)
inactive: [2] 0.082 | [7] 0.044 | [10] -0.018

RNF4 (UniProt P78317)
inactive: [1] -0.208 | [2] 0.079 | [3] -0.157 | [5] -0.018 | [8] -0.069 | [9] 0.055

RNFT1 (UniProt Q5M7Z0)
inactive: [3] -0.081 | [6] -0.069 | [8] 0.023 | [9] -0.044

RPRD1A (UniProt Q96P16)
inactive: [1] 0.098 | [2] 0.084 | [4] 0.002 | [5] 0.258 | [6] 0.105 | [9] -0.013
